No constants are given. Whether binding was seen depends on the method and setting. Some entries that bind do so weakly or less than the wild type.

The chains behind the UniProt entries cited, without tags or fusion partners. Residues count along the entry.
UniProt Q07021, residues 74-282: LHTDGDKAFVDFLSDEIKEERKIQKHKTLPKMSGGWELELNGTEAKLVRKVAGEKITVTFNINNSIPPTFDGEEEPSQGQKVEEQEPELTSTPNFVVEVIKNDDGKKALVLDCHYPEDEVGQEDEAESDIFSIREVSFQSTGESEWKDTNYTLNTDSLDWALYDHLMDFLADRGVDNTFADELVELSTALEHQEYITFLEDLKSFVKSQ

Binding data for one substance are collected here from patent publication US20120082676A1 (RESEARCH FOUNDATION OF STATE UNIVERSITY OF NEW YORK, published 2012).

This experiment has as its target T1, HKH20 (HK peptide, residues 479-498).
T1 sequence (peptide): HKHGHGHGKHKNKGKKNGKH
Briefly: ELISA, wells coated with HK peptide, biotinylated gC1q-R in solution.

As for “gC1q-R (receptor for the globular heads of C1q), highly purified recombinant, full-length (from UniProt Q07021 74-282)”, the binding entry is on record as “binds”.
